Experimental data taken from PubChem BioAssay AID2551 (National Center for Advancing Translational Sciences (NCATS), 2010).
Several values for one entry are separate records, joined by “and”; a condition that tells them apart may be missing. Equal entries are not always repeated. About 17,000 (5.5%) of roughly 310,000 compounds were called active. This list was built around the results that the source calls inconclusive (neither active nor inactive); the mix of calls is not that of the screen. The call rests on the fitted dose curve; in most records, active means well fitted inhibition curve with a large enough effect; inconclusive means small, poorly fitted or top-dose-only effect, or effect the other way; inactive means no such curve, though single readings can be large or run the other way. Potencies beside an inconclusive call are fits to weak or partial responses and may not hold up.

By UniProt entry, the sequences of proteins in these tests, tags left out. Where a name states a change or a piece, a line headed by the entry shows the natural chain unless it says otherwise.
UniProt P51450: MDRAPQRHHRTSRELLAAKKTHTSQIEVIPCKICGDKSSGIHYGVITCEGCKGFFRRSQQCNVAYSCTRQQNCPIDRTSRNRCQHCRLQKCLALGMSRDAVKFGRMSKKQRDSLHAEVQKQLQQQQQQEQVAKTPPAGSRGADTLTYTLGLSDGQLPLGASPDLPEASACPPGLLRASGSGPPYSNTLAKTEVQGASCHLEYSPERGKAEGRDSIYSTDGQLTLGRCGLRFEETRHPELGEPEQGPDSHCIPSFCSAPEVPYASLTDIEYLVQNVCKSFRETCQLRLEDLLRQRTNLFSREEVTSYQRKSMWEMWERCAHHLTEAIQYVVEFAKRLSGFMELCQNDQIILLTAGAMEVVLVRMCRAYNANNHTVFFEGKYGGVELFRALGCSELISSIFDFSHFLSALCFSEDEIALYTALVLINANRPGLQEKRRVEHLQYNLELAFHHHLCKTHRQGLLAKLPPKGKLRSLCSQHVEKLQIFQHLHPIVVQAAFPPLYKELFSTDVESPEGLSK

Biological target: Nuclear receptor ROR-gamma (Mus musculus) (UniProt P51450)
Test: qHTS for inhibitors of ROR gamma transcriptional activity; further: nearly all actives have a fitted effect of over 60% in size
Details: Drosophila S2 Gal4-RORgamma UAS-luciferase reporter, 20 h; activity change, negative = inhibition: at 53.6 µM (top of the series)
Method in brief: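 Compounds are pin-transferred onto Drosophila Schneider cells expressing a copper-inducible Gal4–ROR gamma transactivation domain fusion. After 1 hr, copper sulfate is added to 700 uM final; luciferase is read 20 hr later.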
On the % scale 0 is the no-effect control and ±100 the full control effect; potency means the concentration at half of the fitted maximal effect.

Potency, inactive:
COc1ccc(CCNC(=O)CSc2nnnn2C)cc1OC, Cc1ccc(C)c2nc3sc(C(=O)N4CCOCC4)c(N)c3cc12, CCC1=C2CC[C@H]3C(=O)NC(=O)[C@H]3[C@H]2[C@@]2(C)C(=NCCOC)OC(=O)N2C1=O, COc1ccc(CN2CCN(Cc3ccc(C(F)(F)F)cc3)CC2)cc1, CCOC(=O)N1CCC(N(C(=O)Nc2cccc(OC)c2)C(C)CC)CC1 (stereo not given), O=C(NC1CC2CCCC(C1)N2C(=O)Nc1ccccc1)C1CC1 (stereo not given), COc1ccc(CC(=O)N2CCCC2)c(OC)c1, CN(C)C(=O)c1ccc(-c2cncnc2NCCN2CCOCC2)cc1, CC1CCN(c2nc(-c3cccnc3)nc3scc(-c4ccccc4)c23)CC1, Cc1nn(C)c(N)c1[N+](=O)[O-], Cn1c(CNC(=O)c2ccccc2F)nnc1SCc1ccc(Cl)cc1, CC(=O)Nc1cccc(NC(=O)c2ccc3c(c2)CCN3S(C)(=O)=O)c1, O=C(c1c[nH]c2ccc(S(=O)(=O)N3CCOCC3)cc2c1=O)N1CCCC1, CC(=O)c1csc(CS(=O)(=O)c2ccccn2)n1

Potency, active:
Cc1cc(C(=O)N/N=C/c2cc([N+](=O)[O-])cc(C)c2O)n[nH]1 10 µM, S=C1NC[C@H](CC2CCCCC2)N1CCc1cccc2ccccc12 0.251 µM, Cc1cc(C)nc(N/N=C/c2ccccc2OCc2ccc(Cl)cc2)n1 10 µM, Cc1cc(NC(=S)NC(=O)c2ccccc2)ccc1-c1cc2ccccc2oc1=O 0.398 µM, CN(C)CCCN(C(=O)c1ccc([N+](=O)[O-])o1)c1nc2cc3c(cc2s1)OCO3 12.6 µM, Cc1ccc(/C=N/NC(=O)c2nnn(-c3nonc3N)c2C(C)C)s1 2.24 µM, O=C(Oc1cccc2cccnc12)c1ccco1 1.58 µM, CC1=NN(C2=NS(=O)(=O)c3ccccc32)C(C)(O)C1 (stereo not given) 1.26 µM, O=C(Nc1ncc(Cc2cccc(Cl)c2)s1)c1cccs1 7.08 µM, COC(=O)c1cc(NC(=S)NC(=O)c2ccccc2)ccc1N1CCOCC1 17.8 µM, O=C(NC(NCc1ccccn1)(C(F)(F)F)C(F)(F)F)c1ccco1 10 µM, Cc1cccc2sc(NNC(=O)c3cc(-c4cccs4)nc4ccccc34)nc12 0.251 µM, Cc1cccc(NC(=S)NCCc2ccc(Cl)cc2)c1C 5.62 µM

Potency, inconclusive:
CCOC(=O)c1[nH]c2ccc(Cl)cc2c1NC(=O)/C=C/c1ccc2c(c1)OCO2 7.08 µM [inhibitor, partial curve], COc1ccccc1N/C(=N/S(=O)(=O)c1ccc(C)cc1)c1ccc(Cl)cc1 2 µM [inhibitor, full curve], CN(CCNC(=O)C1CCN(S(=O)(=O)N2CCOCC2)CC1)CCc1ccccc1 14.1 µM [inhibitor, single point], O=C1CCCCN1CCc1c[nH]c2ccccc12 31.6 µM [activator, single point], Cc1ccc(C(=O)N2CCN3C(=O)c4ccccc4C23c2ccccc2)cc1 (stereo not given) 25.1 µM [activator, single point], O=C(Cn1cc2c(n1)CCCC2)Nc1cc(-c2cccc(Cl)c2)no1 15.8 µM [inhibitor, single point], Cn1c(Cn2cnc3ccccc32)nnc1SCc1ccccc1 35.5 µM [activator, single point], O=C1c2ccccc2C(=O)N1CCSc1ccccc1 2.51 µM [activator, full curve, poor fit], O=C(COc1ccc(S(=O)(=O)N2CCCC2)cc1)N1CCN(c2ccccc2F)CC1 12.6 µM [activator, single point], Cc1onc(-c2ccccc2)c1C(=O)Nc1ncc([N+](=O)[O-])s1 28.2 µM [inhibitor, single point], Cc1ccc(C(NC(=O)N2CCCC2)C(Cl)(Cl)Cl)cc1F (stereo not given) 35.5 µM [activator, single point], CC(Sc1nnnn1-c1ccccc1)C(=O)Nc1ccc(Cl)cn1 (stereo not given) 6.31 µM [activator, single point], COc1ccc(CCNC(=O)c2ccccc2NC(=O)C2=C(C)OCCS2)c(OC)c1 17.8 µM [activator, single point], CC(C)c1ccc(NC(=S)N(C)CCc2ccccn2)cc1 8.91 µM [inhibitor, partial curve, poor fit], O=C(Nc1ccc(Cl)c(C(F)(F)F)c1)c1ccco1 7.08 µM [activator, partial curve, poor fit], Cc1cc(C)c(S(=O)(=O)Nc2cccc(-n3cnnn3)c2)c(C)c1 35.5 µM [activator, single point], COC(=O)c1sccc1NC(=O)Nc1cccc([N+](=O)[O-])c1 8.91 µM [activator, partial curve], S=c1nc(-c2ccc(Br)cc2)[nH]c2ccccc12 1 µM [inhibitor, full curve], O=C(/C=C/c1ccccc1)/C=C/c1ccccc1 20 µM [inhibitor, single point], Cc1cc(C)n(-c2ccc(C(=O)Nc3ccc(S(=O)(=O)NCc4ccco4)cc3)cc2)n1 35.5 µM [inhibitor, single point], Cc1ccc(NS(=O)(=O)c2cc(C(=O)Nc3cccc([N+](=O)[O-])c3)ccc2C)cc1 35.5 µM [inhibitor, single point], Nc1nonc1-n1nnc(C(=O)N/N=C/c2ccccc2)c1CSc1ccc(Cl)cc1 35.5 µM [inhibitor, single point], CS(=O)(=O)Nc1ccc(N2CCN(c3ccc(C(F)(F)F)cn3)CC2)nc1 17.8 µM [activator, single point], COc1cccc(C2CC(c3ccc(NS(C)(=O)=O)cc3)=NN2C(=O)c2ccccc2)c1OC (stereo not given) 1.58 µM [inhibitor, full curve], O=C(O)c1cc([N+](=O)[O-])c(Sc2nc3ccccc3[nH]2)c([N+](=O)[O-])c1 20 µM [inhibitor, single point], O=C1OC(c2ccc3c(c2)OCO3)N(C(=O)c2ccc(Cl)c(Cl)c2)c2ccccc21 (stereo not given) 4.47 µM [activator, partial curve], Cc1ccc(-c2nnc(SCC(=O)Nc3ccccc3N3CCOCC3)o2)cc1 25.1 µM [inhibitor, single point], CC(C)(C)NC(=O)C(c1c[nH]c2ccccc12)N(C(=O)Cn1nnc(-c2ccc(F)cc2)n1)c1cccc(O)c1 (stereo not given) 22.4 µM [activator, single point], O=C(c1ccccn1)N1CCN(S(=O)(=O)c2ccc3ccccc3c2)CC1 15.8 µM [activator, single point], Clc1ccc(-c2nnc3c4ccccc4nc(N4CCOCC4)n23)cc1Cl 17.8 µM [activator, single point], CCC(C)N(C(=O)COC(=O)CNC(=O)c1sc2ccccc2c1Cl)C1CCS(=O)(=O)C1 (stereo not given) 35.5 µM [activator, single point], COCC(C)n1c(C)cc(C(=O)Cn2nc(C(=O)O)c3ccccc3c2=O)c1C (stereo not given) 0.398 µM [inhibitor, full curve], O=C(NNC(=S)Nc1ccccc1)c1ccc(O)cc1 15.8 µM [inhibitor, partial curve, poor fit], CCn1c(=O)c(C(=O)NNC(=O)c2cccc(Cl)c2)c(O)c2ccccc21 20 µM [inhibitor, single point], CCc1ccc(NC(=O)CSc2nnc(CNC(=O)c3ccc(OC)cc3)o2)cc1 35.5 µM [inhibitor, single point], O=C(NCC1CCCCC1)c1cccc(-c2ccc(O)cc2)c1 35.5 µM [activator, single point], COc1ccccc1Oc1nc(-c2ccccc2)cc(C)c1S(C)(=O)=O 7.94 µM [inhibitor, partial curve, poor fit], COc1ccc(S(=O)(=O)Nc2ccc3c(c2)OCCO3)cc1Cl 35.5 µM [inhibitor, single point], Cc1cc(OC(C)C(=O)N/N=C/CC(C)c2ccccc2)ccc1Cl (stereo not given) 1.78 µM [inhibitor, partial curve], O=C(Nc1ccnn1C1CCN(Cc2ccc(CO)o2)CC1)c1ccccc1 0.112 µM [inhibitor, full curve, poor fit], Clc1ccc(Sc2ccccn2)cc1 0.126 µM [inhibitor, single point], COc1ccc(C(CCN2CCCCC2)c2c(OC)cc(OC)c3c(-c4ccccc4)cc(=O)oc23)cc1 (stereo not given) 17.8 µM [inhibitor, single point] and 35.5 µM [inhibitor, single point]

Activity change, negative = inhibition, inactive:
O=C(NCCOCCOCCNC(=O)c1cccnc1)c1cccnc1 -1.79% [at 10 µM]
